# Data taken from the supplement of paper PMC9135407.
# Several values for one entry are separate records, joined by “and”; a condition that tells them apart may be missing. Equal entries are not always repeated. Structures can show the parent of a compound that is named as a salt. ± gives the standard deviation of the averaged measurements. This is one part of the list. Part of the spread comes from offsets between plates or batches.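 Assay uses culture-activated primary human stellate myofibroblasts; lipid droplet recovery indicates inactivation. Measured: proportion of Hoechst-counted cells over a plate-specific Bodipy cutoff, duplicate wells, DMSO and nortriptyline as per-plate negative and positive controls. A hit scores, control-normalized, above the plate's top-tenth-percentile nortriptyline wells or ranks among its three best wells. Final well concentrations not reported.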
# Tested on: primary human hepatic stellate cells (donor 1)
# Assay: percent Bodipy-positive cells; higher = more lipid droplet accumulation
# Conditions: 48 h
# [1] = library stock concentration: 10 mM
# [2] = library stock concentration: 80 uM
# [3] = library stock concentration: 400 uM
# [4] = library stock concentration: 3.33 mM
# [5] = library stock concentration: 1 mM
# [6] = library stock concentration: 2 mM
compound,measurement,setting,value
N=C(CC(O)COc1ccccc1-c1ccccc1)N1CCCCC1 (stereo unspecified),percent Bodipy-positive cells,[1],53.9 ± 6.2%
O=C(NCCCNc1nc(Nc2cccc(NC(=O)N3CCCC3)c2)ncc1I)c1cccs1,percent Bodipy-positive cells,[2],10.9 ± 3.4%
same,percent Bodipy-positive cells,[3],8.06% and 26%
same,percent Bodipy-positive cells,[4],21.7 ± 10%
CN1CC[C@@H](c2c(O)cc(O)c3c(=O)cc(-c4ccccc4Cl)oc23)[C@@H]1CO,percent Bodipy-positive cells,[4],64.3 ± 1.1%
same,percent Bodipy-positive cells,[1],69.9 ± 5.9%
Cc1cccc(-c2[nH]ncc2-c2ccc3ncccc3n2)n1,percent Bodipy-positive cells,[4],43.1 ± 6.1%
same,percent Bodipy-positive cells,[1],51.6% and 69%
O=C(O)CCC/C=C\C[C@H]1[C@@H](/C=C/[C@@H](O)CCc2ccccc2)[C@H](O)C[C@@H]1O [8-iso-17-phenyl trinor Prostaglandin F2.alpha.],percent Bodipy-positive cells,[5],14.6 ± 13%
Cn1cc(C2=C(c3ccc(Cl)cc3Cl)C(=O)NC2=O)c2ccccc21,percent Bodipy-positive cells,[1],99.82 ± 0.26%
CCCOc1ccc(Br)cc1-c1cc(-c2ccc(Cl)cc2)[nH]c1-c1ccncc1,percent Bodipy-positive cells,[1],9.15 ± 1.2%
NS(=O)(=O)c1ccc(NC(=O)Nc2ccc(F)cc2)cc1,percent Bodipy-positive cells,[4],4.82 ± 0.48%
same,percent Bodipy-positive cells,[1],13.8 ± 2%
CCCCCCCCNC(C)C(O)c1ccc(SC(C)C)cc1 (stereo unspecified) [Suloctidil],percent Bodipy-positive cells,,97.1 ± 1.2%
same,percent Bodipy-positive cells,library stock concentration: 5.9 mM,96.86 ± 0.16%
same,percent Bodipy-positive cells,[1],52.9 ± 26%
C[C@H]1O[C@@H](O[C@H]2[C@@H](O)C[C@H](O[C@H]3[C@@H](O)C[C@H](O[C@H]4CC[C@@]5(C)[C@H](CC[C@@H]6[C@@H]5CC[C@]5(C)[C@@H](C7=CC(=O)OC7)CC[C@]65O)C4)O[C@@H]3C)O[C@@H]2C)C[C@H](O)[C@@H]1O [Digitoxin],percent Bodipy-positive cells,[1],52.8 ± 1.1%
CC(=O)CC(c1ccc([N+](=O)[O-])cc1)c1c(O)c2ccccc2oc1=O (stereo unspecified) [Acenocoumarol],percent Bodipy-positive cells,,26.4 ± 8.7%
O=C(O)c1cc([N+](=O)[O-])ccc1NCCCc1ccccc1 [5-Nitro-2-(3-phenylpropylamino)benzoic acid],percent Bodipy-positive cells,[1],42.51 ± 0.42%
S=c1[nH]cnc2nc[nH]c12 [Mercaptopurine (6-MP)],percent Bodipy-positive cells,[4],6.61 ± 0.62%
same,percent Bodipy-positive cells,[1],30.7 ± 19%
S=c1[nH]cnc2nc[nH]c12 [Mercaptopurine],percent Bodipy-positive cells,[1],12% and 28.8%
same,percent Bodipy-positive cells,library stock concentration: 13.1 mM,4.2 ± 2.1%
COc1cc2c(cc1OC)[C@@H]1C(=O)c3ccc4c(c3O[C@@H]1CO2)C=CC(C)(C)O4 [Deguelin(-)],percent Bodipy-positive cells,[1],30 ± 2.6%
CC(=O)O[C@]1(C(C)=O)CC[C@H]2[C@@H]3C=C(C)C4=CC(=O)CC[C@]4(C)[C@H]3CC[C@@]21C [Megestrol Acetate],percent Bodipy-positive cells,[4],18.9 ± 6.1%
same,percent Bodipy-positive cells,[1],20.8 ± 4.5%
CC(=O)O[C@]1(C(C)=O)CC[C@H]2[C@@H]3C=C(C)C4=CC(=O)CC[C@]4(C)[C@H]3CC[C@@]21C,percent Bodipy-positive cells,[1],18.8 ± 16%
CC(=O)O[C@]1(C(C)=O)CC[C@H]2[C@@H]3C=C(C)C4=CC(=O)CC[C@]4(C)[C@H]3CC[C@@]21C [Megestrol acetate],percent Bodipy-positive cells,,5.25 ± 2.8%
same,percent Bodipy-positive cells,library stock concentration: 5.2 mM,7.58% and 5.27%
same,percent Bodipy-positive cells,[1],11.8 ± 0.72%
C=C1[C@H](CO)[C@@H](O)C[C@@H]1n1cnc2c(=O)[nH]c(N)nc21 [Entecavir Hydrate],percent Bodipy-positive cells,[4],19.2 ± 13%
same,percent Bodipy-positive cells,[1],14.5 ± 1.9%
O=C1O/C(=C/Br)CC[C@H]1c1cccc2ccccc12 [(S)-Bromoenol lactone],percent Bodipy-positive cells,[5],29 ± 10%
NC[C@H]1O[C@H](O[C@H]2[C@H](O)[C@@H](O[C@H]3O[C@H](CO)[C@@H](O)[C@H](N)[C@H]3O)[C@H](N)C[C@@H]2N)[C@H](N)[C@@H](O)[C@@H]1O [Bekanamycin sulfate],percent Bodipy-positive cells,[1],26.4 ± 2.3%
CN(C)C(=O)c1cc2cnc(Nc3ccc(N4CCNCC4)cn3)nc2n1C1CCCC1,percent Bodipy-positive cells,[4],55.8 ± 11%
same,percent Bodipy-positive cells,[1],75.25 ± 0.077%
CN(C)C(=O)c1cc2cnc(Nc3ccc(N4CCNCC4)cn3)nc2n1C1CCCC1 [Ribociclib],percent Bodipy-positive cells,[2],6.75 ± 2.8%
same,percent Bodipy-positive cells,[3],4.422 ± 0.014%
same,percent Bodipy-positive cells,[6],9.12 ± 0.24%
same,percent Bodipy-positive cells,[1],28.5 ± 1.1%
Cc1cccc(C)c1NC(=O)CN1CCN(CCCC(c2ccc(F)cc2)c2ccc(F)cc2)CC1 [Lidoflazine],percent Bodipy-positive cells,,31.5 ± 4.4%
Cc1nc(N=Nc2cc(S(=O)(=O)O)c3cc([N+](=O)[O-])cc(S(=O)(=O)O)c3c2)c(COP(=O)(O)O)c(C=O)c1O [PPNDS tetrasodium],percent Bodipy-positive cells,[1],17.1 ± 4.3%
CN(C)CCCN1c2ccccc2CCc2ccc(Cl)cc21.Cl [Clomipramine hydrochloride],percent Bodipy-positive cells,,78.9 ± 4.1%
Cc1cccc(C2CN(C)CCc3c2cc(O)c(O)c3Cl)c1 (stereo unspecified),percent Bodipy-positive cells,[1],31.7 ± 1.6%
"CCCCCCCCCCC/C=C\C/C=C\CCCC(=O)O [Eicosa-5,8-dienoic acid (20:2 n-12)]",percent Bodipy-positive cells,[5],10.4 ± 6.3%
Cc1c(C)c2c(c(C)c1O)CCC(C)(CCCC(C)CCCC(C)CCCC(C)C)O2 (stereo not drawn) [Alpha-tochopherol],percent Bodipy-positive cells,[1],34.6 ± 5.9%
COc1cc(C)c(Cc2cnc(N)nc2N)cc1OC,percent Bodipy-positive cells,[1],9 ± 4.3%
COc1cc2nc(N3CCN(C(=O)c4ccco4)CC3)nc(N)c2cc1OC.Cl [Prazosin hydrochloride],percent Bodipy-positive cells,[1],92.4 ± 3.4%
Nc1nc(=O)[nH]cc1F [Flucytosine],percent Bodipy-positive cells,,9.63 ± 0.26%
same,percent Bodipy-positive cells,[4],20.2 ± 20%
same,percent Bodipy-positive cells,[1],8.48 ± 2.1%
same,percent Bodipy-positive cells,library stock concentration: 15.5 mM,14.1 ± 9.7%
CCN1CCN(c2ccc(Nc3cc(N(C)C(=O)Nc4c(Cl)c(OC)cc(OC)c4Cl)ncn3)cc2)CC1,percent Bodipy-positive cells,[2],14.1 ± 1.8%
same,percent Bodipy-positive cells,[3],21.4 ± 6.6%
same,percent Bodipy-positive cells,[6],28.4 ± 14%
same,percent Bodipy-positive cells,[1],40.2 ± 4%

# Rewritten with bars between the fields: entries from further up.
compound | measurement | setting | value
Nc1nc(=O)[nH]cc1F [Flucytosine] | percent Bodipy-positive cells | [1] | 8.48 ± 2.1%
same | percent Bodipy-positive cells | library stock concentration: 15.5 mM | 14.1 ± 9.7%
CCN1CCN(c2ccc(Nc3cc(N(C)C(=O)Nc4c(Cl)c(OC)cc(OC)c4Cl)ncn3)cc2)CC1 | percent Bodipy-positive cells | [2] | 14.1 ± 1.8%
same | percent Bodipy-positive cells | [3] | 21.4 ± 6.6%
